## Library screen at single concentrations

A: 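Whole-parasite assay of Trypanosoma brucei over 72 hours; the read-out is not stated. Tested at 30 µM. The record gives no direction; compounds that gave an IC50 in retests scored well above the rest, so higher reads as stronger inhibition. Values scatter widely below zero; nearly all retest evidence comes from the higher of the two concentrations used. Of about 64,000 compounds tested this way, about 940 (1.5%) reached 50% or more in at least one test.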
B: 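Cell assay of Leishmania donovani living inside macrophages; the read-out is not stated. Concentration: 30 µM. The record gives no direction; compounds that gave an IC50 in retests scored well above the rest, so higher reads as stronger inhibition. About 69,000 compounds were tested under these conditions; 1.5% (about 1,000) showed 50% or more at least once.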

The filed quantity is “Percent Effect” (%). How 0% and 100% were set is not recorded. Most values in the screen are low, and negative values occur. This is an unselected part of the compounds tested. Two or more numbers in one place are separate tests of the same structure; such repeats can differ widely.

SMILES | A | B
[H][C@@]12CNCC[C@]1(O)CCN(CCOc1ccccc1CC)C2 | -48.39 | -0.9375
COc1c(C)cnc(CN2CCCCC2Cn2nc(C)nc2C)c1C (centres undefined) | -16.49 | 19.18
Cc1ccc(-c2c(C(=O)NC3CCN(C)CC3)csc2C)cc1 | -142.6 | 14.75
CC(=O)c1cccc(OCCCC(=O)NC(C#N)CC(C)C)c1 (centres undefined) | -24.99 | 20.73
O=C(NCC1CC1)C1CCCN(c2cccc(C(F)(F)F)n2)C1 (centres undefined) | 15.5 | 22.89
CNC(=O)N1CCN(C(=O)C(C)C)CC2(CC(=O)N(C)C2)C1 (centres undefined) | -7.658 | 9.35
CN(Cc1cc(Cl)ccc1Cl)Cc1ncnn1C | -20.18 | 5.516
Cc1cc(N(C)Cc2noc(C)n2)n2nc(C)c(C)c2n1 | 44.24 | 3.826
COCCCNC(=O)Cn1c(C)cc(=O)n2nc(-c3cccs3)nc12 | -56.87 | 14.21 and 4.176
CNC(=O)c1cc2c(nc1N(C)C)CCN(C)CC2.O=C(O)C(F)(F)F.O=C(O)C(F)(F)F | -68.91 | -11.95
CC(C)c1nccn1CCCNC(=O)c1ccc(-c2cn[nH]c2)nc1 | 3.874 | -8.615
O=C(NCCCOCC1CC1)Nc1cccnc1N1CCOCC1 | 46.68 | 5.788
O=C(C1CCS(=O)(=O)CC1)N1CCC(c2ccc(F)cc2)C1 (centres undefined) | -20.37 | 9.445
Cc1cccc(CN2CCC23CCCNC3)n1 (centres undefined) | -12.96 | -5.216
CC(C)NC(=O)N1CCC2(CC1)Cc1ccccc1CNC2=O | 0.3719 | 43.57
O=C(O)C(F)(F)F.[H][C@@]12COC[C@]1([H])[C@@H](OCC(=O)N(C)C)CN2Cc1ccsc1 | -49.69 | 0.2784
[H][C@@]12CS(=O)(=O)C[C@]1([H])N(Cc1nccn1C)CCN2Cc1ccncc1 | -24.62 | 16.96
CC(C)OCc1ncn2c1CN(Cc1cnn(C)c1)CCC2.O=C(O)C(F)(F)F | -11.3 | 18.92
CN1C(=O)C(c2ccccc2)CC12CCN(CCN1CCCC1=O)CC2 (centres undefined) | -18.77 | -3.109
CN(C)C1COC2(CCN(Cc3ccc4c(c3)OCO4)CC2)C1.O=C(O)C(F)(F)F.O=C(O)C(F)(F)F (centres undefined) | 39.28 | 11.72
COc1ccc(CN(C(=O)C2CCCO2)c2ccncc2)cc1 (centres undefined) | -20.94 | 21.46
CCOc1ncccc1NC(=O)c1cc(C)sc1C | -36.47 | -32.9
O=C(NCC1CCOCC1)c1cc(-c2ccncc2)c2cnccc2n1 | -6.201 | 18.61
CCCn1nccc1C(=O)N1CCCN(CCCc2ccccc2)CC1 | 13.92 | 29.2
CCc1cc(NC2CCN(S(C)(=O)=O)CC2)n2nc(C)c(C)c2n1 | -27.74 | -6.53
CN1CCN(Cc2cnc3n2CCN(C(=O)c2ccccn2)C3)CC1 | -18.83 | 31.6
CCCc1nnc(N[C@H](C)c2ccc(OC)cc2)o1 | -11.44 | -4.056
CS(=O)(=O)NCC1CCCN(c2ccc(C(F)(F)F)cn2)C1 (centres undefined) | -12.44 | -14.26
CN(Cc1n[nH]c2c1CCCCC2)C(=O)c1cc(-c2cccn2C)n[nH]1 | -35.65 | -57.87
CN(C)CC1(O)CCN(C(=O)c2ccc(-n3cccn3)cc2Cl)C1 (centres undefined) | 12.02 | 20.39
CS(=O)(=O)NCc1cnc2n1CCN(Cc1cccs1)CC2.O=C(O)C(F)(F)F | -2.909 | 22.2
CCN(CC)CC[C@H]1CN(C(=O)CC(C)(C)C)CC[C@H]1CC(=O)O | -6.707 | 27.63
CCC(NC(=O)Nc1ccc(OC)c(C)c1)c1noc(C)n1 (centres undefined) | -41.42 | -40.02
CN(C)c1ccc(C(=O)N2CCN(c3cnccn3)CC2)cn1 | 7.24 | 19.24
c1cncc(NCCNC2CCSC2)c1 (centres undefined) | -26.9 | -22.52
COCC(=O)NCC[C@H]1CC(C)(C)Oc2ccc(OC)cc21 | -21.12 | 6.698 and -13.35
CCCc1noc(C2CCCCN2C(=O)CCc2cnn(C)c2)n1 (centres undefined) | -17.26 | 17.8
Cc1nc(CC(C)C)sc1C(=O)N1CCC1 | -2.098 | -14.26
Cc1ccc(C(=O)Nc2c(C(=O)N(C)C)nn(C)c2C)cc1C | 2.439 | 11.06
CC(C)Nc1cccc(C(=O)NCC(O)c2ccc(F)cc2F)c1 (centres undefined) | 3.851 | -14.49
CC(C)OCCCNC(=O)C1CCCN(c2ccc3nncn3n2)C1 (centres undefined) | -9.746 | 5.769
CCCNS(=O)(=O)c1ccc2[nH]c(=O)cc(C)c2c1 | -3.955 | -51.2
O=C(O)CC(O)(CC(=O)O)C(=O)O.OCCN(Cc1ccncc1)CC1(c2ccc(Cl)cc2)CCCC1 | 12.41 | -35.36
COc1cc(N2CCC3(CC2)CNC(=O)CO3)ncn1 | -6.934 | -10.59
Cc1cc(CC(=O)NCc2ccnc(OCC(F)(F)F)c2)no1 | -87.62 | 24.05
CCN(CC)C(=O)CCc1nc(-c2cnn3c(C)cc(C)nc23)no1 | -41.33 | -73.91
CC(C)N1CCC(c2n[nH]cc2-c2ccnc(N)c2)C1 (centres undefined) | 2.3 | 28.17
[H][C@@]12COC[C@]1(COc1cccnc1)CN(C(=O)Cc1cccs1)C2 | -0.7021 | 24.22
NC(=O)c1cc(-c2cccc(C(=O)O)c2)cs1 | 18.46 | 10.09
CC(NC(=O)OC(C)(C)C)c1nnc(S(=O)(=O)Cc2ccc(Cl)cc2)o1 (centres undefined) | 23.44 | -37.91
O=S(=O)(c1ccccc1)N1CCC[C@]2(C[C@@H](OCC3CC3)CO2)C1 | -25.33 | 14.91
CC(C)Cc1cc(NC(=O)c2ccc(=O)[nH]n2)n(C)n1 | 40.58 | 16.53
Cc1nn(C)c(Cl)c1C1CCCN1C(=O)c1cccc(C#N)c1 (centres undefined) | -5.53 | 24.1
O=C(Cc1cccnc1)N1CCC2(CCN(CC3CCCCC3)C2)CC1.O=C(O)C(F)(F)F.O=C(O)C(F)(F)F | -18.86 | 2.118
CC1CC(=O)c2cc(C(=O)N3CCOCC3)c(=O)[nH]c2C1 (centres undefined) | -9.25 | 39.89
CCN(C(=O)Nc1cc(C)on1)C(C)c1cccc(O)c1 (centres undefined) | -2.585 | 14.06
Cc1cc2n(n1)CC(CNCCNC(=O)c1ccc(F)cc1)CN2 (centres undefined) | -19.49 | 37.59
O=C(O)C(F)(F)F.O=C(O)C(F)(F)F.[H][C@]12C[C@H](CN(C)C)O[C@@]1([H])CN(Cc1ccoc1)C2 | 13.34 | 4.803
CCn1cc2c(n1)C(COC)CN(Cc1ccccn1)C2 (centres undefined) | -42.55 | -30.8
O=C(O)C(F)(F)F.[H][C@@]12CCN(S(=O)(=O)c3ccc(C)cc3)C[C@]1([H])[C@@H](CN(C)C)OC2 | -6.145 | 10.4
CCCNC(=O)CSCc1ccc(S(=O)(=O)N(C)C)o1 | -25.77 | 6.939
Cc1nc(N2CCCC2)ncc1-c1cc(O)nc(N2CCN(C)CC2)n1 | -18.75 | 59.07
Cc1nn(C)c(C)c1CCC(=O)N1CCc2sccc2C1 | -43.13 | -27.64
CSCc1cc(F)ccc1CNC(=O)N1CCC(CO)CC1 | -59.11 | 11.44
COCCN1CC2(CCOCC2)c2cc(NC(=O)C3CC=CC3)ccc21.O=C(O)C(F)(F)F | 4.18 | 21.99
O=C1NCCN1C(CNS(=O)(=O)C1CC1)Cc1cccc(F)c1 (centres undefined) | 0.3241 | 3.685 and 33.97
CS(=O)(=O)Nc1ccn(Cc2ccc(F)cc2Cl)n1 | -14.22 | 16.85
CC(NC(=O)Nc1cccnc1N1CCCC1)c1ccncc1 (centres undefined) | -19.47 | 25
CN(CC(=O)Nc1ccncc1)C1CCCN(c2cccnn2)C1 (centres undefined) | -14.48 | 26.53
COc1cc(CNC(C)Cn2cccn2)cc2c1OCO2.Cl (centres undefined) | -1.111 | 11.04
Cc1ccc(NC2(C(=O)NCc3c(C)n[nH]c3C)CCCC2)cc1 | -24.45 | -24.86
Cc1oncc1C(=O)NCc1cc(=O)n2c(n1)CN(CC(C)C)CCC2.O=C(O)C(F)(F)F | 24.6 | 37.3
c1ccc2c(Cc3nnc([C@H]4CCN(CC5CC5)C4)o3)c[nH]c2c1 | 8.755 | 23.56
N#Cc1ccc(CNCC(C(=O)N2CCOCC2)c2ccccc2)cc1 (centres undefined) | 20.74 | 30.79

Some entries from above, unchanged:

{"smiles": "CN(C)C1COC2(CCN(Cc3ccc4c(c3)OCO4)CC2)C1.O=C(O)C(F)(F)F.O=C(O)C(F)(F)F", "stereo": "centres undefined", "A": 39.28, "B": 11.72}
{"smiles": "COCCN1CC2(CCOCC2)c2cc(NC(=O)C3CC=CC3)ccc21.O=C(O)C(F)(F)F", "A": 4.18, "B": 21.99}
{"smiles": "CCOc1ncccc1NC(=O)c1cc(C)sc1C", "A": -36.47, "B": -32.9}
{"smiles": "Cc1cc(N(C)Cc2noc(C)n2)n2nc(C)c(C)c2n1", "A": 44.24, "B": 3.826}

From ChEMBL document CHEMBL3988442, “University of Dundee, Small-Polar-MMV Screening Library” (2021).